The results in this text go back to US6027884.

Amino acid sequences for entries named in this document (tags omitted). Residues count along the entry.
UniProt P00639, 23-282: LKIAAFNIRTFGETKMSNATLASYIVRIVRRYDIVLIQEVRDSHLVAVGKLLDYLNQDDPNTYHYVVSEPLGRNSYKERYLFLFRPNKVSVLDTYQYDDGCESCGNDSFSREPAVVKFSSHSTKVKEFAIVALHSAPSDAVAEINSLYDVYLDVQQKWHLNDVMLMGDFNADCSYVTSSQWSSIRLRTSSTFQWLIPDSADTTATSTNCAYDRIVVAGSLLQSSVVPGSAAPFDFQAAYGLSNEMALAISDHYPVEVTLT

The target of the data set is DNase I (UniProt P00639). The experiment in a line: enzyme reaction in vitro. The conditions noted are these: CITED Huang et al. 1988, purified native protein, label: labeled (Cherenkov-counted).

The exact form of at least one protein or probe is not confirmed. The direction of at least one scale is not stated here.

With “ATATATAGCTATATAT (double strand) [(AT)3 AGCT(AT)3]”, under “kobs ratio (AT)3/(AA)3”, the activity signal (fold vs (AA)3) is over 2.
As to “AAAAAAAGCTTTTTTT (double strand) [(AA)3 AGCT(TT)3]”, the activity signal (reference for kobs ratio, (AT)3 at least 2-fold faster) came to 1 reference.
